The list shows a part of the results.
Compound: CC1Cc2ccccc2N1C(=O)C1CCCN(C1)C(=O)CCl (mixture of isomers) [TRIM25 ligand 11 (diastereomer mixture)]
Assay: probe-labelled cysteine peptide fold change vs DMSO (competition) (log2 fold change); higher = less target engagement (more negative = stronger competition)
Settings: THP-1, incubation time: 4 h
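Note: competitive chemoproteomic profiling in live THP-1 cells with an iodoacetamide desthiobiotin (IA-DTB) probe, comparing probe-labelled peptide intensities in compound-treated cells against DMSO-treated controls.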

## COPA_P53621_1013_LQLCYQLTTVGK (UniProt P53621)
10 µM
  probe-labelled cysteine peptide fold change: 0.164
50 µM
  probe-labelled cysteine peptide fold change: 0.274

## COA6_Q5JTJ3_79_CLDENLEDASQCK (UniProt Q5JTJ3)
10 µM
  probe-labelled cysteine peptide fold change: -0.263
50 µM
  probe-labelled cysteine peptide fold change: -0.053

## COPE_O14579_225_CSPTLLLLNGQAACHMAQGR (UniProt O14579)
10 µM
  probe-labelled cysteine peptide fold change: 0.133
50 µM
  probe-labelled cysteine peptide fold change: 0.171

## CNOT2_Q9NZN8_408_FASPWASSPCRPQDIDFHVPSEYLTNIHIR (UniProt Q9NZN8)
10 µM
  probe-labelled cysteine peptide fold change: -0.0206
50 µM
  probe-labelled cysteine peptide fold change: 0.184

## CNTLN_Q9NXG0_228_ECVQNK (UniProt Q9NXG0)
10 µM
  probe-labelled cysteine peptide fold change: -0.023
50 µM
  probe-labelled cysteine peptide fold change: -0.0167

## COPG2_Q9UBF2_280_NKHEMVIYEAASAIIHLPNCTAR (UniProt Q9UBF2)
10 µM
  probe-labelled cysteine peptide fold change: -0.158
50 µM
  probe-labelled cysteine peptide fold change: 0.0584

## COPG2_Q9UBF2_440+446_EAGLAHLCEFIEDCEHTVLATK (UniProt Q9UBF2)
10 µM
  probe-labelled cysteine peptide fold change: -0.0177
50 µM
  probe-labelled cysteine peptide fold change: 0.031

## CNPY2_Q9Y2B0_28_SQDLHCGACR (UniProt Q9Y2B0)
10 µM
  probe-labelled cysteine peptide fold change: 0.0309
50 µM
  probe-labelled cysteine peptide fold change: 0.016

## CMC1_Q7Z7K0_77_ECLTAYYNDPAFYEECK (UniProt Q7Z7K0)
10 µM
  probe-labelled cysteine peptide fold change: -0.176
50 µM
  probe-labelled cysteine peptide fold change: -0.045

## COMTD1_Q86VU5_45_EQCLLPPEDSR (UniProt Q86VU5)
10 µM
  probe-labelled cysteine peptide fold change: 0.0432
50 µM
  probe-labelled cysteine peptide fold change: -0.019

## COG3_Q96JB2_349+363_ELLLGPSIACTVAELTSQNNRDHCALVR (UniProt Q96JB2)
10 µM
  probe-labelled cysteine peptide fold change: 0.181
50 µM
  probe-labelled cysteine peptide fold change: 0.179

## COMT_P21964_145_LITIEINPDCAAITQR (UniProt P21964)
10 µM
  probe-labelled cysteine peptide fold change: -0.025
50 µM
  probe-labelled cysteine peptide fold change: -0.045

## CNOT1_A5YKK6_1287_FEIEVLCK (UniProt A5YKK6)
10 µM
  probe-labelled cysteine peptide fold change: 0.257
50 µM
  probe-labelled cysteine peptide fold change: 0.325

## COMMD4_Q9H0A8_107_EHAASLCR (UniProt Q9H0A8)
10 µM
  probe-labelled cysteine peptide fold change: -0.02
50 µM
  probe-labelled cysteine peptide fold change: 0.0371

## COPG2_Q9UBF2_387_VVVVQAISALCQK (UniProt Q9UBF2)
10 µM
  probe-labelled cysteine peptide fold change: 0.0809
50 µM
  probe-labelled cysteine peptide fold change: 0.204

## COG2_Q14746_36_EDFDVDHFVSDCR (UniProt Q14746)
10 µM
  probe-labelled cysteine peptide fold change: 0.104
50 µM
  probe-labelled cysteine peptide fold change: 0.196

## COMP_P49747_348_WGDACDNCR (UniProt P49747)
10 µM
  probe-labelled cysteine peptide fold change: 0.349
50 µM
  probe-labelled cysteine peptide fold change: 0.344

## COPG1_Q9Y678_258_DSPLFDFIESCLR (UniProt Q9Y678)
10 µM
  probe-labelled cysteine peptide fold change: 0.203
50 µM
  probe-labelled cysteine peptide fold change: 0.121

## CNBP_P62633_97_EREQCCYNCGKPGHLAR (UniProt P62633)
10 µM
  probe-labelled cysteine peptide fold change: -0.318
50 µM
  probe-labelled cysteine peptide fold change: -0.318

## COPG1_Q9Y678_280_NKHEMVVYEAASAIVNLPGCSAK (UniProt Q9Y678)
10 µM
  probe-labelled cysteine peptide fold change: -0.048
50 µM
  probe-labelled cysteine peptide fold change: 0.102

## CNTRL_Q7Z7A1_1375_SLECEVEELHR (UniProt Q7Z7A1)
10 µM
  probe-labelled cysteine peptide fold change: -0.115
50 µM
  probe-labelled cysteine peptide fold change: -0.146

## COPG2_Q9UBF2_258_ETEDGHESPLFDFIESCLR (UniProt Q9UBF2)
10 µM
  probe-labelled cysteine peptide fold change: 0.145
50 µM
  probe-labelled cysteine peptide fold change: -0.0335

## CNNM4_Q6P4Q7_383_TVEDIMTQLQDCFMIR (UniProt Q6P4Q7)
10 µM
  probe-labelled cysteine peptide fold change: -0.0845
50 µM
  probe-labelled cysteine peptide fold change: 0.0951

## COG2_Q14746_358_QCGSQASVK (UniProt Q14746)
10 µM
  probe-labelled cysteine peptide fold change: -0.0174
50 µM
  probe-labelled cysteine peptide fold change: 0.0387

## COPG2_Q9UBF2_440_EAGLAHLCEFIEDCEHTVLATK (UniProt Q9UBF2)
10 µM
  probe-labelled cysteine peptide fold change: 0.0037
50 µM
  probe-labelled cysteine peptide fold change: 0.0795

## CNOT1_A5YKK6_2359_LFQSVAQCCMGQK (UniProt A5YKK6)
10 µM
  probe-labelled cysteine peptide fold change: 0.232
50 µM
  probe-labelled cysteine peptide fold change: 0.285

## CNN2_Q99439_61_DGTILCTLMNK (UniProt Q99439)
10 µM
  probe-labelled cysteine peptide fold change: 0.00655
50 µM
  probe-labelled cysteine peptide fold change: 0.0892

## COPA_P53621_1191_CPLSGACYSPEFK (UniProt P53621)
10 µM
  probe-labelled cysteine peptide fold change: -0.236
50 µM
  probe-labelled cysteine peptide fold change: -0.0658

## CMC1_Q7Z7K0_31_CSEQVQDFTK (UniProt Q7Z7K0)
10 µM
  probe-labelled cysteine peptide fold change: -0.0323
50 µM
  probe-labelled cysteine peptide fold change: -0.32

## CNOT4_O95628_56_TDENGLCPACR (UniProt O95628)
10 µM
  probe-labelled cysteine peptide fold change: -0.172
50 µM
  probe-labelled cysteine peptide fold change: 0.102

## CNP_P09543_111_LDEDLAAYCR (UniProt P09543)
10 µM
  probe-labelled cysteine peptide fold change: 0.204
50 µM
  probe-labelled cysteine peptide fold change: 0.202

## COPS6_Q7L5N1_283_TDFYDQCNDVGLMAYLGTITK (UniProt Q7L5N1)
10 µM
  probe-labelled cysteine peptide fold change: 0.0632
50 µM
  probe-labelled cysteine peptide fold change: -0.0731

## CNOT1_A5YKK6_1706_AYGSPWCNK (UniProt A5YKK6)
10 µM
  probe-labelled cysteine peptide fold change: 0.0689
50 µM
  probe-labelled cysteine peptide fold change: 0.0924

## CNTRL_Q7Z7A1_1535_DSDFQCLSK (UniProt Q7Z7A1)
10 µM
  probe-labelled cysteine peptide fold change: -0.0717
50 µM
  probe-labelled cysteine peptide fold change: -0.0901

## CNTRL_Q7Z7A1_1423_HHEDIVDEIECIEK (UniProt Q7Z7A1)
10 µM
  probe-labelled cysteine peptide fold change: 0.0444
50 µM
  probe-labelled cysteine peptide fold change: 0.0739

## COIL_P38432_126_AFQLEEGEETEPDCK (UniProt P38432)
10 µM
  probe-labelled cysteine peptide fold change: -0.01
50 µM
  probe-labelled cysteine peptide fold change: 0.0566

## COPG1_Q9Y678_726_EDPTAVACTFSCMMK (UniProt Q9Y678)
10 µM
  probe-labelled cysteine peptide fold change: 0.0698
50 µM
  probe-labelled cysteine peptide fold change: -0.0871

## COG2_Q14746_287_LLEFVPHHCR (UniProt Q14746)
10 µM
  probe-labelled cysteine peptide fold change: -0.0363
50 µM
  probe-labelled cysteine peptide fold change: 0.0127

## COPB1_P53618_390_TLHSCSVR (UniProt P53618)
10 µM
  probe-labelled cysteine peptide fold change: 0.194
50 µM
  probe-labelled cysteine peptide fold change: 0.33
